Assay results published in patent US5739274A, “Active component of parathyroid hypertensive factor” (CV Technologies, Inc., priority 1995, dated 1998).
At least one peptide structure holds a part that was inferred or is arguable (an end, a ring closure or a residue).

The chains behind the UniProt entries cited, without tags or fusion partners.
UniProt P22002, whole entry: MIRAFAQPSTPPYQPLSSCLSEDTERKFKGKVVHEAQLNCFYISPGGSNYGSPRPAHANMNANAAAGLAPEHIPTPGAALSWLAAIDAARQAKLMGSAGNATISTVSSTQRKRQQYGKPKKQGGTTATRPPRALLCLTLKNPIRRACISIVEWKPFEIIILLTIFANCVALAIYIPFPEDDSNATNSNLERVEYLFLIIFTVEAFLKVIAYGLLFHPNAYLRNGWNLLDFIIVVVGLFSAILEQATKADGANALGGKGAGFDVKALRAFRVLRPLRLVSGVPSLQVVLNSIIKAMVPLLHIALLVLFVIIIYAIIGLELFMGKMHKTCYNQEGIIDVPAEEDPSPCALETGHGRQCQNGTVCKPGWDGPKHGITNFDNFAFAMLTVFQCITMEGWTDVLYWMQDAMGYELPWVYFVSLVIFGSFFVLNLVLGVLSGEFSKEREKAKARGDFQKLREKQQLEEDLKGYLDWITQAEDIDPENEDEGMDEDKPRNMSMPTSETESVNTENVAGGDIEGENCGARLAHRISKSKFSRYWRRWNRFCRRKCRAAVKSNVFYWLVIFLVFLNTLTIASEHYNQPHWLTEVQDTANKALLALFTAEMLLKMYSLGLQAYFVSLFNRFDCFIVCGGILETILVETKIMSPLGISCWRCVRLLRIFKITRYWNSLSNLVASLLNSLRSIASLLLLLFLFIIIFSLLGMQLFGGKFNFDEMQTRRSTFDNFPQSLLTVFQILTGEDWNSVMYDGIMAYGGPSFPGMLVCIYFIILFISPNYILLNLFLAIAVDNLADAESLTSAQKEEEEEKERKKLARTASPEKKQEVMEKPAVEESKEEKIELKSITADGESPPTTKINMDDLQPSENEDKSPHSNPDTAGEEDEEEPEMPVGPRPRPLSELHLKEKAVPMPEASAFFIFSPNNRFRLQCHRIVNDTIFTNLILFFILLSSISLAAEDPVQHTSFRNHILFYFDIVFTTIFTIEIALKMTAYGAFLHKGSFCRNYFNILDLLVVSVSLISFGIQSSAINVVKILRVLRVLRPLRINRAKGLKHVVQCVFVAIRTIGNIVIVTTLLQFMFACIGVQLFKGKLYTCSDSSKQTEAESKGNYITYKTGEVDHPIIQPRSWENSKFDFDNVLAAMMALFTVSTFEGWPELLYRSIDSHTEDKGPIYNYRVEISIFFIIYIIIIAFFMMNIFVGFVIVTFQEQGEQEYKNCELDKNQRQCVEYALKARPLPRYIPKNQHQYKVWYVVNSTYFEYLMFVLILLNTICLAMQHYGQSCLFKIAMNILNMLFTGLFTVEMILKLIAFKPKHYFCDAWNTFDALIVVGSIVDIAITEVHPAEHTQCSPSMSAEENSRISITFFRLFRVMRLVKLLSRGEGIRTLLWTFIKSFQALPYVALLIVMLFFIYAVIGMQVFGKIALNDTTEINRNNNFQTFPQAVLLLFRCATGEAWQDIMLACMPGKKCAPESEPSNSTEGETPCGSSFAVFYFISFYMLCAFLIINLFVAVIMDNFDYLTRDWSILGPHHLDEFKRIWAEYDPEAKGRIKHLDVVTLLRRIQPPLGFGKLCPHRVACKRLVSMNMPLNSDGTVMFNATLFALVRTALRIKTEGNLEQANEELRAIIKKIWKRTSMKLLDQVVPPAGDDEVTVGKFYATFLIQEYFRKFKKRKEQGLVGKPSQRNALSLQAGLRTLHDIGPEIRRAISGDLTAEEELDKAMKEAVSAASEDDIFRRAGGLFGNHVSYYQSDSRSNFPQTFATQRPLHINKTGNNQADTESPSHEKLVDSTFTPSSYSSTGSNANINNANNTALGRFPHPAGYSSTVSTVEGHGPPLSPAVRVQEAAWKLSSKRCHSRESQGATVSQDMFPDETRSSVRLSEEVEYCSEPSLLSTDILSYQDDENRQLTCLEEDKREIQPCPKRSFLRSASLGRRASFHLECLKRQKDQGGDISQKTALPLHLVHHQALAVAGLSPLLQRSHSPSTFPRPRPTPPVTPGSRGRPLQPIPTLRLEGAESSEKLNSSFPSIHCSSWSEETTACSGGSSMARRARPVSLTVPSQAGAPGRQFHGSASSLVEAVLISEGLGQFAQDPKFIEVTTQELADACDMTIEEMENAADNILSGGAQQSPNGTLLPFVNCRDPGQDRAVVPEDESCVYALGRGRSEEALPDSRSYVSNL

What was measured:
[1] = system: SD rats; test: Blood pressure bioassay, bolus injection into anesthetized normotensive SD rats; type: in vivo, rat; settings: for hypertensive response (blood pressure in normotensive rats): normotensive rat, as in Example 1
Method: SD rats were anesthetized using Na pentobarbital, (50 mg/kg, i.p.) and catheters were inserted in the jugular vein for injection of plasma and drugs and in the carotid artery for measurement of b.p.
The chloroform methanol extract of SHR plasma was redissolved in saline and administered by bolus injection.

[2] = system: rat tail artery; test: Blood vessel tension measurement, norepinephrine-induced tension in helical strips; type: cell-based; settings: 40 mins incubation before second NE doses
Method: The method was essentially similar to the one described by Pang, et al. (1980). Sprague-Dawley rats of either sex were anesthetized with pentobarbital (50 mg/kg) and the tail artery or aorta were isolated and removed and then placed in KHS buffer (115 mM NaCl, 5 mM KCl, 2.1 mM CaCl2, 1.2 mM MgSO4, 1.2 mM NaH2 PO4, 25 mM NaHCO3, and 11 mM glucose) oxygenated with 95% O2, 5% CO2. The vessels were cut helically and strips of approximately 1.5 cm were secured in a Sawyer-Bartlestone chamber containing KHS. The force development of the helical strips was measured with a Grass FT 0.03 force displacement transducer and recorded on a Grass Model 79D polygraph. Isolated tail artery helical strips were equilibrated for 1 hour prior to addition of any vasoconstricting agents. The strips were preloaded with a resting tension of 0.7 g and incubated at 37° C. (Pang et al., 1985). In all cases, the responsiveness of strips was first tested by adding 60 mM KCl and only responsive tissue was used in experiments. There were two series of experiments.
Two consecutive dose responses to NE in tension development with 1 hour interval were compared. The tissue was washed out after adding first accumulated doses of NE and incubated in normal KHS buffer for 20 mins. The control solvent or testing substances (PHF or LP compounds) were then applied and incubated for another 40 mins. […]

[3] = system: vascular smooth muscle cells isolated from rat tail artery; test: Intracellular calcium determination (fura-2); type: cell-based; settings: 45 mins incubation before KCl; 30 mM KCl for pure PHF, 15 mM KCl for FMOC-PHF
Method: All studies were performed in vascular smooth muscle cells isolated from Sprague Dawley (SD) rat tail artery as described in Wang, et al. (Wang, et al. 1989) with modification. Male SD rats (100-200 g body weight) were anaesthetized with sodium pentobarbital (65 mg/kg body weight intraperitoneally) and the tail artery dissected out and immersed in cold Ca and Mg free Hanks' balanced salt solution (HBSS, Gibco). The blood was washed off from the artery and the connective tissue was then removed. Using a dissecting microscope inside a laminar flow hood, the artery was cut into pieces of about 1.5 cm and placed in 4° C. Ca free HBSS for 30 minutes. […]
Primary cultured vascular smooth muscle cells were incubated for 45 minutes in DMEM containing 5 μM fura-2 acetoxymethyl ester (Molecular Probes, INC.) at room temperature. […] After about 5 min, the coverslip with attached cells was placed in a Sykes-Moore chamber of 1-ml volume on the stage of an inverted microscope, and fluorescence measurements were made with a Fluoroplex III sepctrofluorometer (Tracor Northern). […] R is the ratio of fluorescence in the sample excited at […] which represents intracellular free calcium concentration. […]
The monolayer cells in 1 mM Ca^2+ 5K buffer were challenged by testing substances and the change of R was recorded for a certain period of time. […]

[4] = biological target: T1, L-type Ca2+ channel (Rattus norvegicus, UniProt P22002); test: Ca2+ channel study, whole cell patch clamp in single VSMC; type: cell-based; settings: holding potential -40 mV, 20 mM Ba2+ as charge carrier
T1 construct: single VSMC isolated form rat tail artery by using the whole cell version of the patch clamp technique; endogenous in cells; host or cells: freshly isolated vascular smooth muscle cells of rat tail artery
Method: Ca^2+ channel activity was determined in single VSMC isolated form rat tail artery by using the whole cell version of the patch clamp technique (Hamill et al., 1981). Whole cell Ca^2+ current measurements were carried out by using an Axopatch-1B patch clamp amplifier (Axon Instruments). Patch micropipettes were pulled from borosilicate thin wall glass capillary tubes (OD 1.2 mm, ID 0.9 mm, FHS, Brunswick, Maine, USA) with a two stage micropipette puller (Narishige, PP83, Japan). The micropipettes were fire polished using a microforge (Leitz, Wetzlar, Germany). The tip diameter was approximately 1 μm with a resistance of 2-8 Mega Ohms. The cell attached to the bottom of a 3 cm Petri dish and was bathed in the medium containing 110 mM Tris, 5 mM CsCl, 20 mM HEPES, 30 mM glucose, 20 mM BaCl2, and 0.5 μM TTX. The polished pipette filled with a solution containing 75 mM Cs2 -aspartate, 10 mM EGTA, 2 mM ATP, 5 mM MgCl2, 5 mM K-pyruvate, 5 mM K-succinate, 25 mM glucose, 15 mM HEPES, 5 mM creatine phosphate-Na2, and 50 units/ml creatine kinase was placed against the cell membrane using a Narishige hydraulic micromanipulator. Gentle suction was applied via a tubing attached to the pipette holder. […] The currents were monitored using a digital oscilloscope (Nicolet Instrument Co., Madison, Wis., U.S.A.) and filtered at 3 KHz with a low pass filter (Axon Instruments, Foster City, Calif., U.S.A.). […]

Row | Structure (SMILES) | hypertensive response after phospholipase D digestion ([1]; compound incubated with phospholipase D before bioassay) | hypertensive response (blood pressure in normotensive rats) [1] | effect on norepinephrine induced tension development [2] | effect on intracellular calcium ([Ca2+]i increment induced by KCl) [3] | effect on L-type Ca2+ channel current [4]
1 | CCCCCCCCCCCCCCCCCC(=O)OC[C@@H](O)COP(=O)(O)OC[C@H](NC(=O)[C@@H](NC(=O)[C@H](CO)NC(=O)[C@H](Cc1ccc(O)cc1)NC(=O)OCC1c2ccccc2-c2ccccc21)C(C)C)C(=O)N[C@@H](Cc1c[nH]cn1)C(=O)N[C@@H](Cc1ccccc1)C(=O)N[C@@H](CCCNC(=N)N)C(=O)O [P1-LPS-P2] | inactivated the hypertensive response | delayed prolonged hypertensive response | potentiates the norepinephrine induced tension | potentiated in the effect of KCl | increased current
2 | CCCCCCCCCCCCCCCCCC(=O)OC[C@@H](O)COP(=O)(O)OC[C@H](NC(=O)[C@@H](NC(=O)[C@H](CO)NC(=O)[C@H](Cc1ccc(O)cc1)NC(=O)OCC1c2ccccc2-c2ccccc21)C(C)C)C(=O)O [P1-LPS] |  | minimal hypertensive response |  |  | 
